Here are results for one molecule from US20160031996A1 (CSL, published 2016).

Results are given in words; binding and its absence hold for the method and conditions named. Some results given as binding are weak or reduced against the parent protein; the word gives no strength.

For assay [1], the target named is T1, chimera of human IL-3Rα residues 1-100 with GM-CSFRα domains (human) (UniProt P15509).
T1 sequence: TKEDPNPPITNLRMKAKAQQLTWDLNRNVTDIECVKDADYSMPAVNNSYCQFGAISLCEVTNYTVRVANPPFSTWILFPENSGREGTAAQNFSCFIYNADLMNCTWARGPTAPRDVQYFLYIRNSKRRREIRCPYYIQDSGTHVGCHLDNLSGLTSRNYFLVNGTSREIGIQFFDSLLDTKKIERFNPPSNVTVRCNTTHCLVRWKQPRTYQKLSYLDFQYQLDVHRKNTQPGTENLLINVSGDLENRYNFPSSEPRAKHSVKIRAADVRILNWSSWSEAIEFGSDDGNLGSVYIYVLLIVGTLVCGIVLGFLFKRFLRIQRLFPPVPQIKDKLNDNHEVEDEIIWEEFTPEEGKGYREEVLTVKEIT
In words: flow cytometry, transfected 293F cells. (In general: Flow cytometry measures light scatter and fluorescence of single cells or particles in a stream.)

Assay [2] addresses T2, chimera of human IL-3Rα residues 1-204 with GM-CSFRα domains (human) (UniProt P15509).
T2 sequence: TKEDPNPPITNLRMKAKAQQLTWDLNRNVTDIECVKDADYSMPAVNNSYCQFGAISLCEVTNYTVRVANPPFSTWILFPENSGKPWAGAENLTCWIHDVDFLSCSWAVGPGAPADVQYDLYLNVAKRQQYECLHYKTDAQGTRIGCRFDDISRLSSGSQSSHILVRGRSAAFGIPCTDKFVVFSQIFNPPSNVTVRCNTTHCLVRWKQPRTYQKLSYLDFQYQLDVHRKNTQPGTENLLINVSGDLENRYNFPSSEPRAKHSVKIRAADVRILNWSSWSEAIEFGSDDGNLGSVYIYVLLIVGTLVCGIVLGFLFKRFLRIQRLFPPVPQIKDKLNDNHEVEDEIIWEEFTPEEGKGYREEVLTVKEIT
Description: flow cytometry, transfected 293F cells.

B1: monoclonal antibody 7G3 (antibody, V domains shown)
VH: EVQLQQSGPELVKPGASVKMSCKASGYTFTDYYMKWVKQSHGKSLEWIGDIIPSNGATFYNQKFKGKATLTVDRSSSTAYMHLNSLTSEDSAVYYCTRSHLLRASWFAYWGQGTLVTVSA
VL: DFVMTQSPSSLTVTAGEKVTMSCKSSQSLLNSGNQKNYLTWYLQKPGQPPKLLIYWASTRESGVPDRFTGSGSGTDFTLTISSVQAEDLAVYYCQNDYSYPYTFGGGTKLEIKR
notes: mouse monoclonal antibody (hybridoma ATCC HB-12009)
On to B1, for which the binding result in assay [1] and in assay [2] was “binds” each time.
